In patent CN105367660A:
Results are given in words; binding and its absence hold for the method and conditions named. Some results given as binding are weak or reduced against the parent protein; the word gives no strength.

Chains of the proteins cited; added tags and fusions are not shown. Residues count along the entry.
UniProt P15941, residues 24-1255: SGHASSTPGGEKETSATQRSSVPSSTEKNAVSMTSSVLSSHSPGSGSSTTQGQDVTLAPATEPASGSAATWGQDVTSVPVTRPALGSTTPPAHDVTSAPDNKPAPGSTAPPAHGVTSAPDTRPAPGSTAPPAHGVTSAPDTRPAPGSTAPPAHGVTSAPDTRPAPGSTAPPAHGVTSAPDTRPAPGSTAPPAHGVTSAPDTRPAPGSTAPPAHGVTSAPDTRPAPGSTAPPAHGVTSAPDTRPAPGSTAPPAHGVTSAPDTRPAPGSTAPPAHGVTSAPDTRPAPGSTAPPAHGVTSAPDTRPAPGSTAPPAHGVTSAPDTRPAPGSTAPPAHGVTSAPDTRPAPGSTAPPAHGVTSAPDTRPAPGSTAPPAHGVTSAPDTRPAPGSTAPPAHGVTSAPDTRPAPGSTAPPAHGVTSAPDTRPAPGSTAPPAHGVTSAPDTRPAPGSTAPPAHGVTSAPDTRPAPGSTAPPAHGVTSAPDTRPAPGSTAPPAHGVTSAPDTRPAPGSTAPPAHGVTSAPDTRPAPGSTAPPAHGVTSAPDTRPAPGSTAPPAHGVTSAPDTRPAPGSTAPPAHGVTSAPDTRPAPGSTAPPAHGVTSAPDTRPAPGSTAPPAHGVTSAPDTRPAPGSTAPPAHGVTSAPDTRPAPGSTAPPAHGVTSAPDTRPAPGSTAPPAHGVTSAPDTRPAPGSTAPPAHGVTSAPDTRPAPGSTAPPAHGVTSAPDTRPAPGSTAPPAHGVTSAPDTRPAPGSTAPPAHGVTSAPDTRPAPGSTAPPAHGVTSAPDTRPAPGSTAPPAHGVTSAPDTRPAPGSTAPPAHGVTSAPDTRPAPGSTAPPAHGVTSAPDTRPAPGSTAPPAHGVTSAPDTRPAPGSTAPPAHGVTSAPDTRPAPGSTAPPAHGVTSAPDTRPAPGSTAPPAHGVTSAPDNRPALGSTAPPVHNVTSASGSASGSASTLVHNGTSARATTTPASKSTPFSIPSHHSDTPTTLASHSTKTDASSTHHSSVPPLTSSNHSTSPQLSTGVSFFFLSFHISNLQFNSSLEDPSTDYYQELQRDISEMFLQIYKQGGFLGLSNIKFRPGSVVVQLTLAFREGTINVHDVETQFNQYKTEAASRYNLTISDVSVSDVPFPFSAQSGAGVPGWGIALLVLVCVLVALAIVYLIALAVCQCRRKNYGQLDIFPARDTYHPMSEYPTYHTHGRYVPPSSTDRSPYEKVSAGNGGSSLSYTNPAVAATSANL

Biological target: MUC1抗原 (human) (UniProt P15941)
Test: flow cytometry on MUC1-positive MCF-7 cells, 10 nM bispecific antibody, biotin goat anti-human IgG F(ab')2-specific antibody and PE-streptavidin

B1: 抗CD16A抗原和抗MUC1抗原的双特异性抗体 (bispecific antibody, not shown: a dimerising Fc or GST)
chain: DTVLTQSPASLAVSLGQRATISCKASQSVDFDGHSFMNWYQQKPGQPPKLLIYTTSNLESGIPASFSASGSGTDFTLNIHPVEEEDTATYYCQQSNEDPYTFGGGTKLEIKGGGGSQMQLVQSGAEVKKPGASVKVSCKASGYTFTGHYMHWVRQAPGQGLEWMGWIDPVTGGTKYAQNFQGWVTMTRDTSIRTAYMELSRLRSDDTAMYYCAREVTGDRGQFDKWGQGTLVTVASGGGGSGGGGSCPPCPGGGGSQSVLTQPPSVSVAPGKTARITCGGNNIGSKSVHWYQQKPGQAPVLVIYYDSDRPSGIPERFSGSNSGNTATLTISRVEAGDEADYYCQVWDSSSDWVFGGGTKLTVLGGGGSQVTLRESGPALVKPTQTLTLTCTFSGFSLSTSGMGVGWIRQPPGKALEWLAHIWWDDDKRYNPALKSRLTISKDTSKNQVVLTMTNMDPVDTATYYCARINPAWFAYWGQGTLVTVSS
binding: binds
